# Assay: Proteomic analysis of native murine pancreata and decelled pancreatic ECM (Table 1)
# Parameters: species or system mouse
# Conditions: for Mean of log2(intensities), Pancreatic ECM: decelled pancreatic ECM (spin-decell protocol); for Mean of log2(intensities), Native pancreas tissue: native murine pancreas tissue; for Pancreatic ECM: Mean of log2(intensities): abundance of the listed protein in decelled pancreatic ECM; for Native pancreas tissue: Mean of log2(intensities): abundance of the listed protein in native murine pancreas tissue
molecule,measurement,setting,value
"Q6ZWQ7 (protein, UniProt Q6ZWQ7 1-180, looked up, full-length) MNTVLSRANSLFAFSLSVMAALTFGCFITTAFKDRSVPVRLHVSRIMLKNVEDFTGPRERSDLGFITFDITADLENIFDWNVKQLFLYLSAEYSTKNNALNQVVLWDKIVLRGDNPKLLLKDMKTKYFFFDDGNGLKGNRNVTLTLSWNVVPNAGILPLVTGSGHVSVPFPDTYEITKSY","Mean of log2(intensities), Pancreatic ECM",,30.70 a.u.
same,"Mean of log2(intensities), Native pancreas tissue",,29.41 a.u.
"Q3TCT4 (protein, UniProt Q3TCT4 1-606, looked up, full-length) MARISFSYLCPASWYFTVPTVSPFLRQRVAFLGLFFIPCVLLLLLIMDLRHWATSLPRDRQYERYLARVGDLEATNTEDPNLNYGLVVDCGSSGSRIFVYFWPRHNGNPHDLLDIKQMRDRNSQPVVKKIKPGISAMADTPEHASDYLRPLLSFAAAHVPVKKHRETPLYILCTAGMRLLPERQQLAILADLVKDLPLEFDFLFSQSQAEVISGKQEGVYAWIGINFVLGRFDHEDESDSDTSVDSAAGRRRTVGILDMGGASLQIAYEVPTSASDLPPKQEEAAKILLAEFNLGCDVQHTEHVYRVYVTTFLGFGGNFARQRYEDLVLNETLNKNRLLGQKTGLSPDNPFLDPCLPVGLTDMVKRNNQVLHFRGKGDWASCRTLLSPLLARSNTSQASLNGIYQSPIDFNNSEFYGFSEFFYCTEDVLRIGGHYHGPTFAKAAQDYCGMAWPVLAQRFKNGLFSSHADEHRLKYQCFKSAWMYEVLHEGFHFPYDYPNLQTAQLVYDREVQWTLGAILYKTRFLPLRDLRQGQGGVRPAHGSWLRLSFVYNHYLFFACTLVVLLAIVLYLLRIHRIHRRQTRASAPLDLLWIEQVVPMIGVQVGP","Mean of log2(intensities), Pancreatic ECM",,22.78 a.u.
same,"Mean of log2(intensities), Native pancreas tissue",,21.48 a.u.
"P62818 (protein, UniProt P62818 1-101, looked up, full-length) MTRPLEQAVAAIVCTFQEYAGRCGDKYKICQSELKELLQKELPTWTPSEFRECDYNKFMSVLDTNKDCEVDFGEYVRSLASLCLYCHEYFKECPPEPPCPQ","Mean of log2(intensities), Pancreatic ECM",,23.62 a.u.
same,"Mean of log2(intensities), Native pancreas tissue",,22.32 a.u.
"Q3TDQ1 (protein, UniProt Q3TDQ1 1-823, looked up, full-length) MAEPSAPESKHKSSLNSSPWSGLMALGNSRHGHHGPGTQSASSAAAPKPGPPAGLSGGLSQPAGWQSLLSFTILFLAWLAGFSSRLFAVIRFESIIHEFDPWFNYRSTHHLASHGFYEFLNWFDERAWYPLGRIVGGTVYPGLMITAGLIHWILNTLNITVHIRDVCVFLAPTFSGLTSISTFLLTRELWNQGAGLLAACFIAIVPGYISRSVAGSFDNEGIAIFALQFTYYLWVKSVKTGSVFWTMCCCLSYFYMVSAWGGYVFIINLIPLHVFVLLLMQRYSKRVYIAYSTFYIVGLILSMQIPFVGFQPIRTSEHMAAAGVFALLQAYAFLQYLRDRLTKQEFQTLFFLGVSLAAGAVFLSVIYLTYTGYIAPWSGRFYSLWDTGYAKIHIPIIASVSEHQPTTWVSFFFDLHILVCTFPAGLWFCIKNINDERVFVALYAISAVYFAGVMVRLMLTLTPVVCMLSAIAFSNVFEHYLGDDMKRENPPVEDSSDEDDKRNPGNLYDKAGKVRKHVTEQEKPEEGLGPNIKSIVTMLMLMLLMMFAVHCTWVTSNAYSSPSVVLASYNHDGTRNILDDFREAYFWLRQNTDEHARVMSWWDYGYQIAGMANRTTLVDNNTWNNSHIALVGKAMSSNETAAYKIMRSLDVDYVLVIFGGVIGYSGDDINKFLWMVRIAEGEHPKDIREGDYFTQQGEFRVDKAGSPTLLNCLMYKMSYYRFGEMQLDFRTPPGFDRTRNAEIGNKDIKFKHLEEAFTSEHWLVRIYKVKAPDNRETLGHKPRVTNIVPKQKYLSKKTTKRKRGYVKNKLVFKKGKKTSKKTV",Mean of log2(intensities),Native pancreas tissue,27.60 a.u.
same,Mean of log2(intensities),Pancreatic ECM (decelled),29.17 a.u.
"Q9DBG7 (protein, UniProt Q9DBG7 1-636, looked up, full-length) MLDFFTIFSKGGLVLWCFQGVSDSCTGPVNALIRSVLLQERGGNNSFTHEALTLKYKLDNQFELVFVVGFQKILTLTYVDKLIDDVHRLFRDKYRTEIQQQSALSLLNGTFDFQNDFLRLLREAEESSKIRAPTTMKKFEDSEKAKKPVRSMIETRGEKTKEKAKNNKKRGAKKEGSDGTLATSKTAPAEKSGLSAGPENGELSKEELIRRKREEFIQKHGKGLDKSSKSTKSDTPKEKGKKAPRVWELGGCANKEVLDYSTPTTNGTPEAALSEDINLIRGTGPGGQLQDLDCSSSDDEGATQNTKPSATKGTLGGMFGMLKGLVGSKSLSREDMESVLDKMRDHLIAKNVAADIAVQLCESVANKLEGKVMGTFSTVTSTVKQALQESLVQILQPQRRVDMLRDIMDAQRRQRPYVVTFCGVNGVGKSTNLAKISFWLLENGFSVLIAACDTFRAGAVEQLRTHTRRLTALHPPEKHGGRTMVQLFEKGYGKDAAGIAMEAIAFARNQGFDVVLVDTAGRMQDNAPLMTALAKLITVNTPDLVLFVGEALVGNEAVDQLVKFNRALADHSMAQTPRLIDGIVLTKFDTIDDKVGAAISMTYITSKPIVFVGTGQTYCDLRSLNAKAVVAALMKA","Mean of log2(intensities), Pancreatic ECM",,30.88 a.u.
same,"Mean of log2(intensities), Native pancreas tissue",,29.39 a.u.
"Q99JR1 (protein, UniProt Q99JR1 1-322, looked up, full-length) MSGEVPPNINIKEPRWDQSTFIGRASHFFTVTDPRNILLTNEQLENARKVVHDYRQGIVPAGLTENELWRAKYAYDSAFHPDTGEKMTLIGRMSAQVPMNMTITGCMMTFYRTTPAVLFWQWINQSFNAVVNYTNRSGDAPLTVNELGTAYVSATTGAVATALGLNALTKRVSPLIGRFVPFAAVAAANCINIPLMRQRELKVGIPVTDENGTRLGESTNAAKQAITQVVISRILMAAPGMAIPPFIMNTLEKKAFLKRFPWMSAPIQVTLVGFCLVFATPLCCALFPQKSSMSVTSLEDELQASIQRTHPEIRRVYFNKGL",Mean of log2(intensities),Native pancreas tissue,27.21 a.u.
same,Mean of log2(intensities),Pancreatic ECM (decelled),28.73 a.u.
"P35276 (protein, UniProt P35276 1-219, looked up, full-length) MASASEPPASPRDAADQNFDYMFKLLLIGNSSVGKTSFLFRYADDSFTPAFVSTVGIDFKVKTVYRHDKRIKLQIWDTAGQERYRTITTAYYRGAMGFLLMYDIANQESFTAVQDWATQIKTYSWDNAQVILVGNKCDLEDERVVPAEDGRRLADDLGFEFFEASAKENINVKQVFERLVDIICDKMNESLEPSSSPGSNGKGPALGDTPPPQPSSCSC","Mean of log2(intensities), Pancreatic ECM",,29.41 a.u.
same,"Mean of log2(intensities), Native pancreas tissue",,28.02 a.u.
"Q9QYG0 (protein, UniProt Q9QYG0 1-371, looked up, full-length) MAELQEVQITEEKPLLPGQTPETAKEAELAARILLDQGQTHSVETPYGSVTFTVYGTPKPKRPAIFTYHDVGLNYKSCFQPLFRFGDMQEIIQNFVRVHVDAPGMEEGAPVFPLGYQYPSLDQLADMIPCILQYLNFSTIIGVGVGAGAYILSRYALNHPDTVEGLVLINIDPNAKGWMDWAAHKLTGLTSSIPDMILGHLFSQEELSGNSELIQKYRGIIQHAPNLENIELYWNSYNNRRDLNFERGGETTLKCPVMLVVGDQAPHEDAVVECNSKLDPTQTSFLKMADSGGQPQLTQPGKLTEAFKYFLQGMGYMASSCMTRLSRSRTASLTSAASIDGSRSRSRTLSQSSESGTLPSGPPGHTMEVSC","Mean of log2(intensities), Pancreatic ECM",,23.06 a.u.
same,"Mean of log2(intensities), Native pancreas tissue",,21.90 a.u.
"Q91YQ5 (protein, UniProt Q91YQ5 1-608, looked up, full-length) MESPVALLLLLLLCLGALAPTPGSASSEAPPLVNEDVKRTVDLSSHLAKVTAEVVLVHPGGGSTSRASSFVLALEPELESRLAHLGVQIKGEDEEDNNLEVRETKIKGKSGRFFTVKLPVALDPGSKISVVVETVYTHVLHPYPTQITQSEKQFVVFEGNHYFYSPYPTKTQTMRVKLASRNVESYTKLGNPSRSEDVLDYGPFKDIPAYSQDTFKVHYENNSPFLTITSMTRVIEVSHWGNIAVEENVDLKHTGAVLKGPFSRYDYQRQPDSGISSIRSFKTILPAAAQDVYYRDEIGNVSTSHLLILDDSVEMEIRPRFPLFGGWKTHYIVGYNLPSYEYLYNLGDQYALKMRFVDHVFDEQVIDSLTVKIILPEGAKNIQVDSPYDISRAPDELHYTYLDTFGRPVIVAYKKNLVEQHIQDIVVHYTFNKVLMLQEPLLVVAAFYILFFTVIIYVRLDFSITKDPAAEARMKVACITEQVLTLVNKRLGLYRHFDETVNRYKQSRDISTLNSGKKSLETEHKAVTSEIAVLQSRLKTEGSDLCDRVSEMQKLDAQVKELVLKSAVEAERLVAGKLKKDTYLENEKLSSGKRQELVTKIDHILDAL",Pancreatic ECM: Mean of log2(intensities),,33.48 a.u.
same,Native pancreas tissue: Mean of log2(intensities),,32.38 a.u.
"Q9D1Q4 (protein, UniProt Q9D1Q4 1-92, looked up, full-length) MTKLTQWLWGLALLGSAWAALTMGALGLELPFPCREVLWPLPAYLLVSAGCYALGTVGYRVATFHDCEDAARELQSQIVEARADLARRGLRF","Mean of log2(intensities), Pancreatic ECM",,26.66 a.u.
same,"Mean of log2(intensities), Native pancreas tissue",,25.27 a.u.
"Q9ERE2 (protein, UniProt Q9ERE2 1-481, looked up, full-length) MTCGSGFCGRAFSCASACGPRPGRCCISAAPYRGISCYRGLSGGFGSQSVCGAFRSGSCGRSFGYRSGGICGPSPPCITTVSVNESLLTPLNLEIDPNAQCVKHEEKEQIKCLNSKFAAFIDKVRFLEQQNKLLETKWQFYQNRKCCESNMEPLFEGYIEALRREAECVEADSGRLAAELNHAQESMEGYKKRYEEEVSLRATAENEFVALKKDVDCAYLRKSDLEANAEALTQETDFLRRMYDEETRILHSHISDTSIVVKMDNSRDLNMDCVVAEIKAQYDDIASRSRAEAESWYRTKCEEIKATVIRHGETLRRTREEINELNRMIQRLTAEIENAKCQNTKLEAAVTQSEQQGEAALADARCKLAELEGALQKAKQDMACLLKEYQEVMNSKLGLDVEITTYRRLLEGEEQRLCEGVGAVNVCVSSSRGGVVCGDLCVSGSRPVIGSACSAPCSGNLAVNTGLCAPCGSAVSCGRKC",Pancreatic ECM: Mean of log2(intensities),,31.52 a.u.
same,Native pancreas tissue: Mean of log2(intensities),,21.31 a.u.
